Assay results from the supplement of paper PMC10849652.
The list shows a part of the results.

Amino acid sequences for entries named in this document (tags omitted). A change or cut given only in a name is not applied to a line headed by its entry.
UniProt P84095: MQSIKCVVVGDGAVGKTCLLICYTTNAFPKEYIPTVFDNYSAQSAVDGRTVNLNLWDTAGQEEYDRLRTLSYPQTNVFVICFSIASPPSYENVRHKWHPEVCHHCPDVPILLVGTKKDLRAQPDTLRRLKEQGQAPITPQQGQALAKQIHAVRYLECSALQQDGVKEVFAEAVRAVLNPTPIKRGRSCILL
UniProt O76064: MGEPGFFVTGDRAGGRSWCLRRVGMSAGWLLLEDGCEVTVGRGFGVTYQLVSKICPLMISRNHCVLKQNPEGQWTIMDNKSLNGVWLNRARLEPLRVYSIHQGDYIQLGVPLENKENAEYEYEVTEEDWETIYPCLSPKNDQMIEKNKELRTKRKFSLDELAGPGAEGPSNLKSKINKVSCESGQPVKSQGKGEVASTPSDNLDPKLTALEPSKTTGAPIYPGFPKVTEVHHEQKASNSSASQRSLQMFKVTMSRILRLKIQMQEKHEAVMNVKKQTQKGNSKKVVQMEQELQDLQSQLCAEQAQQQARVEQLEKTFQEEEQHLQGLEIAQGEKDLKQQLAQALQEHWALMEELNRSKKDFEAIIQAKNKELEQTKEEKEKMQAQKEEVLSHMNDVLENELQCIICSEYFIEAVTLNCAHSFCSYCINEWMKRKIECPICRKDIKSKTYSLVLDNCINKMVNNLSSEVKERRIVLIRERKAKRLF
UniProt Q9Y225: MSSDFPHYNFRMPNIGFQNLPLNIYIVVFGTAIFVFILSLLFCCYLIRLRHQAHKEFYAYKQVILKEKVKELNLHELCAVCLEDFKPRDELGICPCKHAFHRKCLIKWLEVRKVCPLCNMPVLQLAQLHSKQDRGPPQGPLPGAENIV
UniProt Q96K19: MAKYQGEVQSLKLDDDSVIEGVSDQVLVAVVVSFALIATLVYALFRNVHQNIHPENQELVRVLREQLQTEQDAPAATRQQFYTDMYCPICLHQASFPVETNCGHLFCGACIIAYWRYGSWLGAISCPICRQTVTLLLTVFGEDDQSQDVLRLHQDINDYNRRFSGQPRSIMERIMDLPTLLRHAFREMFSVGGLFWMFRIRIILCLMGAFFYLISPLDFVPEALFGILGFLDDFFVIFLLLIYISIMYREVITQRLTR
UniProt Q9BXT8: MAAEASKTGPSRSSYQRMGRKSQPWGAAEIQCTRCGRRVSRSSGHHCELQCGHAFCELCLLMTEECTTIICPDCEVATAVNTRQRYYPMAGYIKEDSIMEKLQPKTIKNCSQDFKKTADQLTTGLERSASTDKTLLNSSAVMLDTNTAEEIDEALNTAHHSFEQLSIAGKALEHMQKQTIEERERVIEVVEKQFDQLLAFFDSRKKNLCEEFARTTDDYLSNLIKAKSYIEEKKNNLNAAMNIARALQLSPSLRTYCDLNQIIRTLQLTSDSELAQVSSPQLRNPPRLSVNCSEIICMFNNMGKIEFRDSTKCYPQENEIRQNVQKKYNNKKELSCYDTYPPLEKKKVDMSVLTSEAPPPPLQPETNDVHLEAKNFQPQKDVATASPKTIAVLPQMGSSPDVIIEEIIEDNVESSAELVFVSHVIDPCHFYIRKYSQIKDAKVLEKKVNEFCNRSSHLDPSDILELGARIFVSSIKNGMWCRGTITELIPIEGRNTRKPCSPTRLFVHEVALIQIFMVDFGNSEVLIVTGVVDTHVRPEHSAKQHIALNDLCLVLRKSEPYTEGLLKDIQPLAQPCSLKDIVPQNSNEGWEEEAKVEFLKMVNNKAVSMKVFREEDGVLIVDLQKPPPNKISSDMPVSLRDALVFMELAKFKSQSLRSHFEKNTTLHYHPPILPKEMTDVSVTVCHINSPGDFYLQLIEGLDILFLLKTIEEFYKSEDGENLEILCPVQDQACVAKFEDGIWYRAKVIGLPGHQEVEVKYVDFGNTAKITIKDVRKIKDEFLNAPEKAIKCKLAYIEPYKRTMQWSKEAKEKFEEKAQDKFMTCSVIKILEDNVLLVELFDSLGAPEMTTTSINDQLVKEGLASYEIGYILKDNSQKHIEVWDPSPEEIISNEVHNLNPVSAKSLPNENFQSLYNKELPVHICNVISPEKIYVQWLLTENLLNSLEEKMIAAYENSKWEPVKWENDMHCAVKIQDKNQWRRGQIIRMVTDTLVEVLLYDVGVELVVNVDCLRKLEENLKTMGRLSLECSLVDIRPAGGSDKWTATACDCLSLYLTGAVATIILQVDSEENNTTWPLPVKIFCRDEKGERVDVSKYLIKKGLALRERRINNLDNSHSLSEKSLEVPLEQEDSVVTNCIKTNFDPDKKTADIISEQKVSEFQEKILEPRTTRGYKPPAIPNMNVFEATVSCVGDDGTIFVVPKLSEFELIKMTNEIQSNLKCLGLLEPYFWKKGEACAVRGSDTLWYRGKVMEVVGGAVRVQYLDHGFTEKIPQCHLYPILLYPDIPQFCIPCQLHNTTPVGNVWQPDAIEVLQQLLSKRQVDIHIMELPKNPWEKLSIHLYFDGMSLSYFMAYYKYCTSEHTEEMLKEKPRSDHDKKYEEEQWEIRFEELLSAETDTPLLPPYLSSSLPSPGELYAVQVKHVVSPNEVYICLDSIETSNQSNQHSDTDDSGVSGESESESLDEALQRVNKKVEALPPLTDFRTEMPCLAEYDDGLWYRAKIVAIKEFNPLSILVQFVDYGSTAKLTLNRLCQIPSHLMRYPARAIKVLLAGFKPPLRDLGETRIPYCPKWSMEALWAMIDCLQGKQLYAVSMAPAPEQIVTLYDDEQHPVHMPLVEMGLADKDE
UniProt Q9HCK4: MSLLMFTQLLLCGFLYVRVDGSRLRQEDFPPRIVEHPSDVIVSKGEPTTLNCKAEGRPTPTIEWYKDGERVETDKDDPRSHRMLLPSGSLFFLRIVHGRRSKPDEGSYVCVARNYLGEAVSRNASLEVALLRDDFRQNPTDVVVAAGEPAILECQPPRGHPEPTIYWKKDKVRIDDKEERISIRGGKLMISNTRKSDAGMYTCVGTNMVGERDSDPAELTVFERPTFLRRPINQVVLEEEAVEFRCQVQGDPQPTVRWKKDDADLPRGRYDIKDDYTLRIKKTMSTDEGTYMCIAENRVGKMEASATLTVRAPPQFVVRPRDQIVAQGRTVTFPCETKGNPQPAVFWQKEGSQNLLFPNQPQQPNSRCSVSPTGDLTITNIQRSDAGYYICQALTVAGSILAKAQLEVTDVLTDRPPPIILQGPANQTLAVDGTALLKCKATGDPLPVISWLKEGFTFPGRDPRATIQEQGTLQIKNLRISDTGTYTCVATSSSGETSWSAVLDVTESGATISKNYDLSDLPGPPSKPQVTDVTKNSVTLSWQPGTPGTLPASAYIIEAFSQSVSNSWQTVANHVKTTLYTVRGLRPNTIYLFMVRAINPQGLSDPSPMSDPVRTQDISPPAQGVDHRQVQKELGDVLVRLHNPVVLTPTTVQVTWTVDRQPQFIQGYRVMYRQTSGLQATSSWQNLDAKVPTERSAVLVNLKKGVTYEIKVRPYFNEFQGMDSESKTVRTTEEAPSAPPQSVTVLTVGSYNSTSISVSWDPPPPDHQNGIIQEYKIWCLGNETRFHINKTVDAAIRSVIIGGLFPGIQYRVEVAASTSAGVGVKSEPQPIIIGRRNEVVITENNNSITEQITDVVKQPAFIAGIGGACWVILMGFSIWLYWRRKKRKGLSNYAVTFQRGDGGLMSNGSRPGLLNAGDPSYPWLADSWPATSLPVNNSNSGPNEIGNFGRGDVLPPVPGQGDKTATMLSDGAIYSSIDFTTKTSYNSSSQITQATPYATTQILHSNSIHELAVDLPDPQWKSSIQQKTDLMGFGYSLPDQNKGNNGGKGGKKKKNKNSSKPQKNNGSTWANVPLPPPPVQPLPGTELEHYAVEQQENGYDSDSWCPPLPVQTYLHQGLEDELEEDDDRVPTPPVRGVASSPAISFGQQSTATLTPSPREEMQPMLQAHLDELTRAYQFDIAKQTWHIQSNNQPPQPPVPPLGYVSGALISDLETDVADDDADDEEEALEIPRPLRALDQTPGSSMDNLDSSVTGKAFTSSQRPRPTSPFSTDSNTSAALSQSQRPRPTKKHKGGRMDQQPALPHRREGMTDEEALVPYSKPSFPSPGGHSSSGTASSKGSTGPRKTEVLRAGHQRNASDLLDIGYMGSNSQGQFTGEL
UniProt Q8TA86: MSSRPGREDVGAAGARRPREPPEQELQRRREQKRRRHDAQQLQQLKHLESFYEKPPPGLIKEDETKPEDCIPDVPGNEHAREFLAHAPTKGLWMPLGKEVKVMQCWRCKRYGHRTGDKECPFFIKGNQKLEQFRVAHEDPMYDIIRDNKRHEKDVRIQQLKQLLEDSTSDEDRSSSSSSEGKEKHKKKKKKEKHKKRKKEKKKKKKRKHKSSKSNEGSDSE
UniProt Q13464: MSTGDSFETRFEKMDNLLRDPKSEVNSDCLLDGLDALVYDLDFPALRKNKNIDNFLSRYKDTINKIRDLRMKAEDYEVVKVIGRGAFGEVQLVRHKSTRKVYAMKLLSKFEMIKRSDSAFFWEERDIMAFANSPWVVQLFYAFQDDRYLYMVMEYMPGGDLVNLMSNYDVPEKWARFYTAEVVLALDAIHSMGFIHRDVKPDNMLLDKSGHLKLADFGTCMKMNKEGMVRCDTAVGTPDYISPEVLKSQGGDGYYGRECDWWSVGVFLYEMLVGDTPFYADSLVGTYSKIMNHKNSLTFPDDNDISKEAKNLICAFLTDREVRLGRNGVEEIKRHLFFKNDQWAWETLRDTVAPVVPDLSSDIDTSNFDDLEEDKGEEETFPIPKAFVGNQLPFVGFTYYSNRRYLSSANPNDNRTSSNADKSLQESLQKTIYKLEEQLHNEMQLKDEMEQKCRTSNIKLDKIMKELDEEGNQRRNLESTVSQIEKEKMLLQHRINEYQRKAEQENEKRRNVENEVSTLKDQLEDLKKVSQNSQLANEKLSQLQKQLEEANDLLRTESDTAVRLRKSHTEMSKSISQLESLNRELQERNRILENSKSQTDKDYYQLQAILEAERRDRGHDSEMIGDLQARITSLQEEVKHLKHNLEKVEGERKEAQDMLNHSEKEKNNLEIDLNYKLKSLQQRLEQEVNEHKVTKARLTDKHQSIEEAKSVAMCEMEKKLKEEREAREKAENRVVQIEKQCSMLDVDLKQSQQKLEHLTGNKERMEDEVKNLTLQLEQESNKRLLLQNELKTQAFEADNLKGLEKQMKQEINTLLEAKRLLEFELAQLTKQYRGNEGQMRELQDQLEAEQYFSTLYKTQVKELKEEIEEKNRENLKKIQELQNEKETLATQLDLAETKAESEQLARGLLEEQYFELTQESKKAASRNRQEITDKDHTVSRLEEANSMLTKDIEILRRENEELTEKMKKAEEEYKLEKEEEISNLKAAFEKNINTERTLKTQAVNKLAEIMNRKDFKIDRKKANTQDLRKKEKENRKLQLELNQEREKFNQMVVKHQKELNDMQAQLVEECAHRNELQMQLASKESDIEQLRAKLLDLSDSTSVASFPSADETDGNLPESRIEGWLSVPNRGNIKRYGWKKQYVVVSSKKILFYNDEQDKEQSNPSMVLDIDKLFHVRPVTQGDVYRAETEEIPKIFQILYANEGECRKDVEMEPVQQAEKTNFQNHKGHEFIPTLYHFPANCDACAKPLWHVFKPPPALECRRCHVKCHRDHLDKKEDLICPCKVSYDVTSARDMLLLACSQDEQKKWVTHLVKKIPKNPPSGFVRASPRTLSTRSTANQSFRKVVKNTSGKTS
UniProt Q99496: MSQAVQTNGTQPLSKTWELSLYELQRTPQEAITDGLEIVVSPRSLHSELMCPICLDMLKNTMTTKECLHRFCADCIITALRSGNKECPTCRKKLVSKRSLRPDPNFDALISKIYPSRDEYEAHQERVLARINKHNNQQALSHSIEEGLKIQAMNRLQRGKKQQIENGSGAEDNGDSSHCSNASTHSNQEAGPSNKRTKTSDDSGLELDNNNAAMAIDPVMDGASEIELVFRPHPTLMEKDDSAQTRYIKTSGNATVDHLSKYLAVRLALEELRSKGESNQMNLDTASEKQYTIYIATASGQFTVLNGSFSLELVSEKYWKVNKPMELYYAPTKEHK
UniProt P0C7M4: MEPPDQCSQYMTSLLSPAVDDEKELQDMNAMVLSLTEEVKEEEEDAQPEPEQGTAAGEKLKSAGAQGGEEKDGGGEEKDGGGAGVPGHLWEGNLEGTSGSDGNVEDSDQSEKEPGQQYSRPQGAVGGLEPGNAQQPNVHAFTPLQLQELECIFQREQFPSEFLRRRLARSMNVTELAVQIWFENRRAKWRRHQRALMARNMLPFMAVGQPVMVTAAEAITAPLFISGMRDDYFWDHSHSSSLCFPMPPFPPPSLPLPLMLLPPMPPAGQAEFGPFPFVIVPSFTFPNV
UniProt Q9H4P4: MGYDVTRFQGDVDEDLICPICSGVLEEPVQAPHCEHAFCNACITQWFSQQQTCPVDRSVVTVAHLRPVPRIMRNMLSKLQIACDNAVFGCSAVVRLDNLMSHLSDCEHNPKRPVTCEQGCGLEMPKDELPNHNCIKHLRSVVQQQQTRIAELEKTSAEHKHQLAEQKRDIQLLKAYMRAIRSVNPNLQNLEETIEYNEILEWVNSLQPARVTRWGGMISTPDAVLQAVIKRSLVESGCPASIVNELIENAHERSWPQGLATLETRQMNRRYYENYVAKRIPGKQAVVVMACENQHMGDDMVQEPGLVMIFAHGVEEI

Experiments:
Test in all cases: log2 fold change, soluble protein after heating vs DMSO (PISA); higher = thermal stabilisation; K562 lysate, 10 uM; active = over 0.2 and 3.5 SD of the protein, either way, in both replicates (recomputed)
[1] = compound: Cc1cn(-c2cc(NC(=O)c3ccc(C)c(Nc4nccc(-c5cccnc5)n4)c3)cc(C(F)(F)F)c2)cn1 [nilotinib]
Outline: (§1)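 Following dounce homogenisation of K562 pellets in PBS pH 7.4 with 1 mM MgCl2, crude extract at 1 mg/mL protein was incubated for 30 min with 10 μM compound. Aliquots were then heated for 3 min over 48°C-58°C and pooled, NP-40 was added to 0.5% at 4°C, and soluble protein was recovered as the supernatant at 21,000xg for 90 min. Channel-sum-equalised TMTpro 16plex LC-MS/MS quantified this protein. Each value, from duplicates, is a log-two fold change in thermal stability relative to solvent controls.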

[2] = compound: Cc1nc(Nc2n[nH]c3c2CN(C(=O)N[C@H](CN(C)C)c2ccccc2)C3(C)C)c2sccc2n1
Outline: as §1

[3] = compound: Cc1nc(Nc2ncc(C(=O)Nc3c(C)cccc3Cl)s2)cc(N2CCN(CCO)CC2)n1 [dasatinib]
Outline: as §1

[4] = compound: Cc1ncc(-c2ccnc(Nc3ccc(S(C)(=O)=O)cc3)n2)n1C(C)C
Outline: as §1

[5] = compound: Cn1cc(-c2ccc3c(c2)CCN3C(=O)Cc2cccc(C(F)(F)F)c2)c2c(N)ncnc21
Outline: as §1

[6] = compound: Cn1cc(CNCC2CCN(c3ncc(C(=O)NO)cn3)CC2)c2ccccc21 [quisinostat]
Outline: as §1

[7] = compound: Cn1cncc1[C@@](N)(c1ccc(Cl)cc1)c1ccc2c(c1)c(-c1cccc(Cl)c1)cc(=O)n2C [tipifarnib]
Outline: as §1

[8] = compound: NC(=O)Nc1cc(-c2cccc(F)c2)sc1C(=O)N[C@H]1CCCNC1
Outline: as §1

[9] = compound: NC(=O)c1cnc(N[C@@H]2CCCC[C@@H]2N)nc1Nc1cccc(-n2nccn2)c1
Outline: as §1

[10] = compound: NC1(c2ccc(-c3nc4ccn5c(=O)[nH]nc5c4cc3-c3ccccc3)cc2)CCC1
Outline: as §1

Measured: log2 fold change

RHOG (UniProt P84095)
inactive: [1] 0.019 | [2] 0.001 | [3] 0.005 | [4] 0.039 | [5] -0.003 | [6] 0.057 | [7] 0.016 | [8] -0.04 | [9] -0.033 | [10] -0.006

RMI2 (UniProt Q96E14)
inactive: [3] -0.049 | [5] -0.044 | [6] -0.051 | [8] 0.021 | [10] 0.082

RNF8 (UniProt O76064)
inactive: [1] -0.016 | [2] -0.069 | [3] -0.03 | [4] -0.007 | [5] -0.106 | [6] 0.012 | [7] 0.067 | [8] 0.106 | [10] -0.04

RNFT1 (UniProt Q5M7Z0)
inactive: [1] 0.01 | [2] 0.109 | [3] 0.174 | [4] -0.145 | [5] -0.201 | [7] 0.169 | [10] -0.005

RPL32 (UniProt D3YTI8)
inactive: [3] 0.039 | [5] -0.054 | [9] 0.171 | [10] 0.039

RNF185 (UniProt Q96GF1)
inactive: [1] 0.015 | [2] 0.033 | [4] 0.003 | [7] -0.038 | [9] -0.053 | [10] -0.06

RNF24 isoform 2 (UniProt Q9Y225)
inactive: [1] 0.105 | [2] -0.028 | [4] 0.123 | [6] -0.139 | [7] 0.034 | [8] -0.075 | [10] 0.051

RNF170 (UniProt Q96K19)
inactive: [1] -0.04 | [2] 0 | [3] -0.008 | [4] 0.043 | [5] -0.028 | [7] -0.3 | [9] -0.07 | [10] 0.073

RNF4 (UniProt P78317)
inactive: [1] 0.015 | [2] 0.158 | [4] 0.042 | [6] 0.198 | [7] -0.281 | [8] -0.103

RPL10, A0A087WV22
inactive: [3] -0.205 | [5] 0.053 | [6] 0.059 | [8] -0.016 | [10] 0.2

RNF17 (UniProt Q9BXT8)
inactive: [3] -0.055 | [5] 0.061 | [6] 0.142 | [8] 0.054 | [9] 0.046 | [10] 0.043

ROBO2 isoform 3 (UniProt Q9HCK4)
inactive: [6] 0.052 | [8] 0.009 | [9] 0.043 | [10] 0.005

RP9 (UniProt Q8TA86)
inactive: [3] -0.002 | [5] 0.036 | [6] 0.015 | [8] -0.083 | [9] -0.04 | [10] -0.117

RNF5 (UniProt Q99942)
inactive: [1] -0.036 | [2] -0.013 | [3] -0.209 | [4] 0.024 | [5] 0.038 | [6] 0 | [7] -0.027 | [8] -0.053 | [10] 0.06

RNF10 isoform 2 (UniProt Q8N5U6)
inactive: [3] 0.058 | [5] -0.034 | [6] -0.117 | [8] 0.086 | [9] 0.489 | [10] -0.087

RNF7 (UniProt Q9UBF6)
inactive: [1] 0.125 | [2] 0.014 | [3] -0.088 | [4] 0.074 | [5] 0.052 | [6] 0.009 | [7] 0.021 | [8] -0.025 | [9] -0.006 | [10] -0.001

RNF187 (UniProt Q5TA31)
inactive: [1] 0.04 | [2] 0.1 | [3] -0.013 | [4] -0.038 | [5] -0.001 | [6] -0.013 | [7] -0.06 | [8] 0.01 | [10] 0.014

ROCK1 (UniProt Q13464)
inactive: [1] -0.013 | [2] -0.001 | [3] -0.004 | [4] 0.006 | [5] 0.011 | [6] -0.01 | [7] 0.001 | [9] 0.009 | [10] 0.013

Copied from the listing (8 entries):
RNFT1 (UniProt Q5M7Z0)
inactive: [1] 0.01 | [2] 0.109 | [3] 0.174 | [4] -0.145 | [5] -0.201 | [7] 0.169 | [10] -0.005

RPL32 (UniProt D3YTI8)
inactive: [3] 0.039 | [5] -0.054 | [9] 0.171 | [10] 0.039

RNF185 (UniProt Q96GF1)
inactive: [1] 0.015 | [2] 0.033 | [4] 0.003 | [7] -0.038 | [9] -0.053 | [10] -0.06

RNF24 isoform 2 (UniProt Q9Y225)
inactive: [1] 0.105 | [2] -0.028 | [4] 0.123 | [6] -0.139 | [7] 0.034 | [8] -0.075 | [10] 0.051

RNF170 (UniProt Q96K19)
inactive: [1] -0.04 | [2] 0 | [3] -0.008 | [4] 0.043 | [5] -0.028 | [7] -0.3 | [9] -0.07 | [10] 0.073

RNF4 (UniProt P78317)
inactive: [1] 0.015 | [2] 0.158 | [4] 0.042 | [6] 0.198 | [7] -0.281 | [8] -0.103

RPL10, A0A087WV22
inactive: [3] -0.205 | [5] 0.053 | [6] 0.059 | [8] -0.016 | [10] 0.2

RNF17 (UniProt Q9BXT8)
inactive: [3] -0.055 | [5] 0.061 | [6] 0.142 | [8] 0.054 | [9] 0.046 | [10] 0.043

Later entries.

RNF169 (UniProt Q8NCN4)
inactive: [3] 0.079 | [5] -0.158 | [6] 0.068 | [8] 0.091 | [10] -0.36

RNF167 (UniProt Q9H6Y7)
inactive: [3] -0.005 | [5] 0.047 | [6] 0 | [8] 0.02 | [9] -0.009

RNF2 (UniProt Q99496)
inactive: [1] 0.026 | [2] -0.047 | [3] -0.07 | [4] 0.027 | [5] -0.025 | [6] 0.154 | [7] -0.124 | [8] -0.015 | [10] -0.05

RINL (UniProt Q6ZS11)
inactive: [1] 0.049 | [2] -0.271 | [3] -0.008 | [4] -0.02 | [5] 0.012 | [7] -0.209 | [9] -0.047 | [10] 0.021

RNASEH2B, A0A1B0GUE7
inactive: [1] -0.01 | [2] 0.037 | [4] 0.211 | [7] 0.067 | [9] 0.035

RNF139 (UniProt Q8WU17)
inactive: [6] -0.041 | [8] 0.028 | [10] -0.017

RPGR (UniProt Q92834)
inactive: [6] 0.031 | [8] -0.003

RPF1 (UniProt Q9H9Y2)
inactive: [6] 0.119 | [8] 0.087 | [9] -0.019

RILPL2 (UniProt Q969X0)
inactive: [1] -0.16 | [2] 0.007 | [4] 0.159 | [6] -0.058 | [7] -0.06 | [8] 0.141 | [9] -0.009 | [10] 0.013

RPL30 (UniProt P62888)
inactive: [1] 0.014 | [2] -0.007 | [3] 0.01 | [4] -0.043 | [5] 0.006 | [6] -0.021 | [7] 0.008 | [8] 0.005 | [9] -0.007 | [10] -0.003

RNF115 (UniProt Q9Y4L5)
inactive: [1] -0.29 | [2] 0.131 | [4] 0.066 | [6] 0.061 | [7] -0.267 | [8] -0.038

RHOXF2B (UniProt P0C7M4)
inactive: [3] 0.074 | [5] -0.198 | [9] -0.227 | [10] -0.227

RPL22L1 (UniProt Q6P5R6)
inactive: [3] -1.13 | [5] 0.347

RPL15, A0A2R8Y738
inactive: [1] -0.163 | [2] 0.042 | [4] -0.182 | [7] -0.125 | [9] 0.037 | [10] 0.16

RNF41 (UniProt Q9H4P4)
inactive: [1] 0.139 | [2] 0.26 | [3] -0.027 | [4] -0.189 | [5] 0.018 | [6] 0.014 | [7] -0.156 | [8] -0.005 | [10] -0.095
